In patent publication US20030147899A1, “Endogenous hormone adjuvant and uses thereof” (priority 1999, published 2003):
Entries after “also recorded” stand apart in the source; their conditions may differ. At least one compound was matched to its structure with a doubt left.

What was measured:
[1] = system: skin DTH, DNFB challenge (pinna thickness); assay: Skin DTH response, hormones given before DNFB challenge of previously sensitized animals; assay type: in vivo, rat; details: dexamethasone low dose 0.1 mg/kg, acute, ADX animals
Procedure: Young adult, male Sprague Dawley rats (150-300 g) (Harlan Sprague Dawley, Indianapolis, Ind.) were housed in plastic cages in the accredited (American Association of Accreditation of Laboratory Animal Care) animal facilities of The Rockefeller University (New York, N.Y.). The animal room was maintained on a 12 h light-dark cycle (lights on 7 am). Animals were given rat chow and water ad libitum.
Bilateral adrenalectomy (ADX) was performed using standard aseptic surgical techniques on animals fully anesthetized with the inhalant, methoxyflurane (Metofane; Pitman-Moore, Washington Crossing, N.J.). Sham adrenalectomized (SHAM) animals went through exactly the same procedure as ADX animals except that their adrenals were not removed. […]
DTH was induced by challenging the pinnae of previously sensitized rats with 2,4-dinitro-1-fluorobenzene (DNFB, Sigma, St. Louis, Mo.) or oxazalone (OXA, Sigma, St. Louis, Mo). […] The thickness of both pinnae was recorded using a constant-loading dial micrometer (Mitutoyo, Japan). […] On day 5, baseline pinna thickness was measured. […] Pinna thickness was measured at the times shown. […]
For all experiments, repeated measures were made on each animal. Significant differences between timepoints within a specific leukocyte subpopulation were analyzed using the Student's t-test as a test for significant differences between means. […] Data are expressed as mean ±SEM in all figures. […]

[2] = molecular target: T1, corticosteroid binding globulin (Homo sapiens, UniProt P08185); details: plasma protein; cited from earlier work
T1 sequence (P08185 23-405): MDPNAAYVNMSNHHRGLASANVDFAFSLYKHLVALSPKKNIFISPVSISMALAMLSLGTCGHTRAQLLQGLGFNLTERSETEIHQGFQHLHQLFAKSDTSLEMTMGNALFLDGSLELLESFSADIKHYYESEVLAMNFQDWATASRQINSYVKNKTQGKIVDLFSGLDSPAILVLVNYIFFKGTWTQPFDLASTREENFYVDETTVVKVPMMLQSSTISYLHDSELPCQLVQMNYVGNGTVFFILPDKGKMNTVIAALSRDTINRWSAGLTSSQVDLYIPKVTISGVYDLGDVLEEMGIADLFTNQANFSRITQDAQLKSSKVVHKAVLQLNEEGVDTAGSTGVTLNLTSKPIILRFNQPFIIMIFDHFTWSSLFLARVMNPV

## C[C@@H]1C[C@H]2[C@@H]3CCC4=CC(=O)C=C[C@]4(C)[C@@]3(F)[C@@H](O)C[C@]2(C)[C@@]1(O)C(=O)CO [dexamethasone, reference compound]
[1]
  skin DTH vs vehicle: significantly suppressed skin DTH; also recorded: lower DTH responses than control animals; also recorded: failing to demonstrate adjuvant activity and showing immune-suppressing activity
[2]
  binding to corticosteroid binding globulin: does not bind corticosteroid binding globulin
